Assay: soluble on expression in E. coli; label from the status in PepcDB or PDB records

MPSVQIGPPPASQSAIEAVRTVIITDEDLVKEKVCAICKEEFEVGEEGKELKCLHLYHSSCIVSWLNIHNTCPICRFEVNLGVSESNVDEGGSYNIDNDRSNRFRTRVCSLWPLRMMIDWVHNLIGKIPPPDIAFMAFLLCLYGF
soluble on expression in E. coli: soluble

MGGVTSSIAAKFAFFPPSPPSYGFVSDVDRLYITEVPRRDDVDVLKLKTRRGNEIVAIYIKHPKANGTLLYSHGNAADLGQMFELFIELSNRLRLNLMGYDYSGYGQSTGKASECNTYADIDAAYTCLKEHYGVKDDQLILYGQSVGSGPTIDLASRTPNLRGVVLHSPILSGMRVLYPVKRTYWFDIYKNIDKIGAVTCPVLVIHGTADEVVDCSHGKQLWELSKEKYEPLWVSGGGHCNLELYPEFIKHLKKYVISISKGPRTGSNKTATTDAAKKQSKPAENGRADTFQLGCCLPEVSRNSVDSQLEKSKKTSKPEKSRMSIDRFRRKKGSVW
soluble on expression in E. coli: soluble

MAHHHHHHMSNKKGQSPKEESIAKMLICKVHIGTKNLENKMKRYVYTRAKDGVHIINLAKTYEKLQLAARIIVAISNPADVVVVSARPFGSRAVLKFAQYTGAQAIAGRWTPGMLTNQIIQKFTEPRLLIVTDPRTDAQSVKESAYANIPVIALCDSDSPLEHVDIAIPCNNKGKESIALMYWLLAQEVLYLKGVIPRSEPWNVMVDMFLWRDPEQFELKNLANEENTPTAPHLIENQYAAEAPYDEWTKKEEWNDNTNEDWKNPIAAEEW
soluble on expression in E. coli: not soluble

GPGSMSGLGSDDVLYYLYDPNLVPPARDKYIQVISELLAGYYDSSYVDKINIMDILRGGAMEAVELCEDAKSILSKEPTVLGLCVGDVDDFVFVGDIHGQFNDLLHSVLSVQLSRSAPVSRKGTKVATQPTQRMNDEEARGERSSPLPIVATPTLSSSLAPLPSSTAMPRHRDDSRGFGRDAGKIIRFLFLGDYVDRGPRGLEVIVLLLALKIEYPQHVFLLRGNHEEAQTNRLYGF
soluble on expression in E. coli: not soluble

MKKIKTAFALPLFWLLFKVSKDMHKIQVDGQAWCQWQHKNFTLWNMCSLFIGFKEFRNLFYYRIGYLHHLIEWIFPRMTNLYITTPRSDVDSGLIIQHGFATIISAKQIGKNCKIYQQVTIGYDHTLQAPIIGDNVEICCGAKVIGGVTIGNNVIIGANAVVIKDVPNNCIVAGVPAKIIKKILEHHHHHH
soluble on expression in E. coli: not soluble

MSSISNNPDFSSIDPAVLMSLLMKSSGSLPTPPDTHSDGSESPDSTASDSSDKKRRRKPESKDIVRVAEEAEAAAATCSSIPSSSDTKENETEEDQNMTCDTTTNNAQKPTEQTATSADVVTSSVPSGLEGVPSFLFSQFMAPSFQKQLEIFTSGNMMSATHSDTSPSDVDSVLDGGVVTAEETSSSKSPMMTSSDTPKTPLTASSPPHSSGSESRVMSPITHTNISDELSISTTPTVAFTPNGSIPSPGTGYSWSIRREGKLACPTPGCDGSGHQTGLYTHHRSLSGCPRRPDKTVIQMLALRQDTVLRCTTAGCSGKGHVNGNRTSHRSLSGCPIAHQEKLARKGIKTTPQRTKTPIKGISISDECPLDLTLSGLPAGLSAQQLLAAAQAGLIPSSQMMDALFQQFSQTQPLATLEEESKKENEMEVDVETTSDDIPTLIKEEEEVKCESPVPSVIPEIQSTPSRPVAAPVAPGSAEKSSPTSQMLLQMPGFSEALLKMTAPQVPFPQYSPQAALFGNQSALLAQIMLTQLQMQQGF
soluble on expression in E. coli: not soluble

PAAEEQPAAAPAQAAAPAAEQKPAAAAPAPAKADTPAPVGAPSRDGAKVHAGPAVRMLAREFGVELSEVKASGPKGRILKEDVQVFVKEQLQRAKSGGAGATGGAG
soluble on expression in E. coli: not soluble

MADSTTAQHVTDEVDVALIGAGIMSATLGAMLRTLEPGWTQVMFERLDAPAQESSSPWNNAGTGHSALCELNYTPEVKGRVQIDKALGVNEKFQISRQFWSYQVNEGVLPSPREWINPVPHVSFGRGEDQVAYLKKRYEALAAHPLFPNMQYTDDRAKFAEMLPLMADGRSEFEKVAISWTDAGTDINYGSQTRQFLKAAEKNGTEIRYGHEVKDIKRDGAKWRVTVKNVHTGDTQVIRANFVFVGAGGMALPLLQKTGIVEIRGWGGFPVSGQWLRCTNPDIIEQHAAKVYGKASIGAPPMSVPHLDTRVIDGEKGLLFGPYAGWTPKFLKKGSYLDLFKSIRPTNLMSYLGVGAQEFGLTKYLITEVMKDQAARMESLREYMPNAKDEDWELVTAGQRVQAIQPVVGPRFSTLAFGTSLINSADGSVAGILGASPGASIAPAAMLELLERCFGQKMVEWGPTIKDMIPSYGIRLATDQKLFNEIWDHTQATLQLDKK
soluble on expression in E. coli: not soluble

MLSKSTRLLRRCFQTDVDVIVIGGGHAGCESAAAAARCGSNTVLVTQNKNTIGEMSCNPSFGGIGKGHLIREVDALDGLCARICDKSAITYQALNRAQGPAVLGLRAQIDRKLYKTQMQNEINSTKRLEILEGEVAELLVENGKIVGIRMMNETVIRTKCVVITTGTFLRAQIYQGMKTWPAGRIGEKSSDRLSESFLKHGFELGRLRTGTPPRLMKDSINFSKFERVAPDRTPIPFSFLTKNVWISYEDQLPTYLGHTNDEVCRIGNENMHENYQVASETTSPRYCPSLESKLLRFPKLHHRLFLEHEGLDSPHIYPQGMSLTFKPEVQTQLLRAIPGLENVEIFQPGYGVQYDFVNPKQLKRTLETRKVEGMFLAGQINGTTGYEEAAAQGVVAGINASARAQNEPGMEVSRTEGYIGVLIDDLTSLGTNEPYRMLTSRAEFRLYLRPDNADIRLTELGRRHNAISDNRWAIFTETKGELNNLTQRTEEMKMSMVKWKRIIPKLAATSRNDGKVLSAFDLIHRYDLDKSDLELCLKDKNIGEDILERLKIEGRYQMEHERMKAKKQEIDRESATAIPDNTDFSTMRGMSLECIEKLERARPRNLAAATRISGITPEAIVVLMRHLKNPAPVRSSAV
soluble on expression in E. coli: not soluble

MKKKINCFIPFGNPKDTIQTVKELQASELVNKIYLLSADTNKECLPGCECLLINGLYSTSTIKTIADNADDASYLLLYTKQTPLKLGLYALERMTQIIQSSSENAMVYADHYQLVDGVLKQAPVIDYQQGSLRDDFDFGSVLLFNSEIFTLASSILEETVFQYAAFYEMRLMLGNLFQIIHINEFLYTEIETDTRKSGEKQFDYVNPKNREVQIEMEKVCIKHLKEINAYVRPSSRTVNLDREAFEFEASVIIPVRNRIRTIRDAVNSALSQQTTFPFNVIVIDNHSTDGTTEALQEFSADNRLIHIIPQENDLGIGGCWNVGVHHEKCGKFAVQLDSDDLYKDEHTLQKIVDTFYQQNCAMVIGTYLMTDFQMNEIAPGVIDHKEWTVEDGPNNALRINGLGAPRAFYTPILRKIKFPNTSYGEDYAIGLSISREYTIGRIYDVIYLCRRWEGNSDAALDIEKINRNNFYKDSIRTWELQARIRMHSIDESFQRLVNEMIEKQKKDWKLAKKNYKELEQNLKKEKTLELKLGGDTKRVRFFPNPQRAISTMAQTDSQSIQERPCFLCNDNRPAEQTSLSLGHYEVCLNPYPIFRRHLTIIEEEHTPQTIKNRFEDMLFLAENMNEFLILYNGPECGASAPDHMHFQAAGKEEKIANPFGMTFISDMLSSEDSVHSHLENGFTTSIGISSPNRRGIIEMFEYLYDKIVSIYHDKEPLINVIAWYGLETVNRTGGDEIKQWNCIIFLRSKHRPECYYAQGKKGLLISPAIAEMCGVFPIVREEDLDKITAKKITQIYKEVSLSQEQLKALTDQTS
soluble on expression in E. coli: not soluble

MAEGVFQGAIGIDLGTTYSCVATYESSVEIIANEQGNRVTPSFVAFTPEERLIGDAAKNQAALNPRNTVFDAKRLIGRRFDDESVQKDMKTWPFKVIDVDGNPVIEVQYLEETKTFSPQEISAMVLTKMKEIAEAKIGKKVEKAVITVPAYFNDAQRQATKDAGAISGLNVLRIINEPTAAAIAYGLGAGKSEKERHVLIFDLGGGTFDVSLLHIAGGVYTVKSTSGNTHLGGQDFDTNLLEHFKAEFKKKTGLDISDDARALRRLRTAAERAKRTLSSVTQTTVEVDSLFDGEDFESSLTRARFEDLNAALFKSTLEPVEQVLKDAKISKSQIDEVVLVGGSTRIPKVQKLLSDFFDGKQLEKSINPDEAVAYGAAVQGAILTGQSTSDETKDLLLLDVAPLSLGVGMQGDMFGIVVPRNTTVPTIKRRTFTTCADNQTTVQFPVYQGERVNCKENTLLGEFDLKNIPMMPAGEPVLEAIFEVDANGILKVTAVEKSTGKSSNITISNAVGRLSSEEIEKMVNQAEEFKAADEAFAKKHEARQRLESYVASIEQTVTDPVLSSKLKRGSKSKIEAALSDALAALQIEDPSADELRKAEVGLKRVVTKAMSSR
soluble on expression in E. coli: not soluble

MFENCFPNTLDTTVRYKMKAGRPDTFVITGDIDAMWLRDSSAQVWPYLPLMKDDKELQLLIAGLINRQAECIRIDPYANAFNDGPLGSYWETDHTQHMVKELHERKWEIDSLCYPIRLAYHYWLLTKDISAFDADWHETMKLVVQTFKEQQRKQGLGPYSFTRDCDRPTDSQINNGWGAPVKPVGLIVSSFRPSDDATQYGFLIPSNMFAVVSLRQLAEIEREVYDNLPFAEECTALADEVDAAIRRYGTFNHPVCGRIYAFEVDGFGNALCMDDANVPCLLAAPYLGYCSFKDAVYRNTRKMIWSENNPYFFKGKAGEGVGGPHVGLNYIWPMSIIMKAFTTDVPEEIRSCLKQLRDTDGGTGFMHESFNSENAADFTRSWFAWTNTLFGELILKIIREYPGLLSQALLEHHHHHH
soluble on expression in E. coli: not soluble

MAELRSNMITQGIDRAPHRSLLRAAGVKEEDFGKPFIAVCNSYIDIVPGHVHLQEFGKIVKEAIREAGGVPFEFNTIGVDDGIAMGHIGMRYSLPSREIIADSVETVVSAHWFDGMVCIPNCDKITPGMLMAAMRINIPTIFVSGGPMAAGRTSYGRKISLSSVFEGVGAYQAGKINENELQELEQFGCPTCGSCSGMFTANSMNCLSEALGLALPGNGTILATSPERKEFVRKSAAQLMETIRKDIKPRDIVTVKAIDNAFALDMALGGSTNTVLHTLALANEAGVEYSLERINEVAERVPHLAKLAPASDVFIEDLHEAGGVSAALNELSKKEGALHLDALTVTGKTLGETIAGHEVKDYDVIHPLDQPFTEKGGLAVLFGNLAPDGAIIKTGGVQNGITRHEGPAVVFDSQDEALDGIINRKVKEGDVVIIRYEGPKGGPGMPEMLAPTSQIVGMGLGPKVALITDGRFSGASRGLSIGHVSPEAAEGGPLAFVENGDHIIVDIEKRILDVQVPEEEWEKRKANWKGFEPKVKTGYLARYSKLVTSANTGGIMKILEHHHHHH
soluble on expression in E. coli: soluble

MSLEAKQREGRARLVLVTGAARGIGLACAHRFARAGDRVVMADRDLAACTFEAERLGSRHVALQLDVSDEAAVEHAMDGLLQQFGAFDVVINNAGVVDRFARPLLDVPPEDIDRLIGVNLEGPYLVVRAALRTILAGRRGAAIVNVASGAALRALPGRAAYSMTKAGVIGMTRAMAIELGPQGIAVNAVLPGYIDTEILLALEREGKFDRAAAAGAIPMGRLGRTDEIAEAVHYLARGGYHCGSLLSVDGGVDAYGGSGKASTAVMPHRPVRAGDVACVTGGASGIGAVVADRLAGLGWLVAIIDSREIADGPHPAWQADIASEASVESAMAGIAGQLGPVTLLVNNAGIVEPMAKSADQALADFRRTIDVNVKGTIHASRAAARQMIGAGGGAIVNLSSITASLGLPGRNAYCASKSAVTMLTRSLACEWAAHGIRVNAVAPGYILTPAVQALLASGERDMNSVVRRIPVARLGQPDEVADAIAFLASDAASYVTGATLQVDGGYLASGHEGHHHHHH
soluble on expression in E. coli: soluble

EFVVEKVLDRRVVNGKVEYFLKWKGFTDADNTWEPEENLDCPELIEAFLNSQKAGKEKDGTKRKSLSDSESDDSKSKKKRDAADKPRGFARGLDPERIIGATDSSGELMFLMKWKDSDEADLVLAKEANMKCPQIVIAFYEERLTWHSCPEDEAQ
soluble on expression in E. coli: not soluble

Reference: the DeepSol protein solubility set
